Measurements: patent US6783949B1, “Processes for determining whether a test substance contains lipases or lipase inhibitors” (Aventis Pharma Deutschland GmbH, priority 1999, dated 2004)
“And” between values parts separate entries of the source, which are not always exact repeats. Equal values may be shown once. This continues a long series; more values of the same kind are listed elsewhere.

Molecular target: T1, HSL (Rattus norvegicus, UniProt P15304)
T1 construct: The partially purified HSL can be stored at −70° C. for 4 to 6 weeks; from tissue; host or cells: rat epididymal fat cells (male Wistar rats)
T1 sequence (P15304 1-768 isoform P15304-2): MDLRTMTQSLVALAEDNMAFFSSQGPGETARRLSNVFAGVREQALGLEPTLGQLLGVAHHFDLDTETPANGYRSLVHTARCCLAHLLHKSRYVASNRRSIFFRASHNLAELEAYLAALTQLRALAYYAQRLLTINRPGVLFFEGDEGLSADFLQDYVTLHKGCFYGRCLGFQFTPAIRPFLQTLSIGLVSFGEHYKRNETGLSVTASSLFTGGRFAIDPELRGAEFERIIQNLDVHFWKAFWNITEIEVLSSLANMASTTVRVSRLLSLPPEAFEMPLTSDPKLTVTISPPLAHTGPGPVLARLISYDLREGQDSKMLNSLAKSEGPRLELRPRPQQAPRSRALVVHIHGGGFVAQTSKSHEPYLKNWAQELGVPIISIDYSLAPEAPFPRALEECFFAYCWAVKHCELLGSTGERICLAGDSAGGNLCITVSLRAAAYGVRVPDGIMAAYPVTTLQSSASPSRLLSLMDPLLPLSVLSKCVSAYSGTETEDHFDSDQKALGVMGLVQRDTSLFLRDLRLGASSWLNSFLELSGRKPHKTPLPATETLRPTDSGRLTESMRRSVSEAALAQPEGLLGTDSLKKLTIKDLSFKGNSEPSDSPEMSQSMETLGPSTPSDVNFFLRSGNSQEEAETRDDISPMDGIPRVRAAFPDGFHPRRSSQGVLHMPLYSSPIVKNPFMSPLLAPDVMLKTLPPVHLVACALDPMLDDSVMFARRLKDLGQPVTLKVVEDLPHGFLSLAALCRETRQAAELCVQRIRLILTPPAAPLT
Assay: Indirect NAG assay (extinction increase at 481 nm)
Type: biochemical
Procedure: A typical reaction is carried out at 30° C. for 60 min, for example in 1.5 ml Eppendorf vessels or 96-hole plates. […] 180 μl of the substrate solution (20 μg/ml of phosphatidylcholine, 10 μg/ml of phosphatidylinositol, 50 μg/ml of NAG in assay buffer) are added. After a preincubation for 15 min at 30° C., 20 μl of HSL in assay buffer are pipetted in and the extinction is immediately measured (see above) at 481 nm in a cuvette photometer (0.5 ml cuvette) or microtiter plate reader. After a certain incubation time, which is variable and depends on the chosen enzyme concentration and can be between 2 and 240 minutes, in this case incubation at 30° C. for 60 min, the extinction is measured again. The increase in the extinction in the yellow region, in this case at 481 nm, is a measure of the enzyme activity.
Isolated rat fat cells are obtained from epididymal fatty tissue from untreated male rats (Wistar, 220-250 g) by collagenase treatment according to published processes. The fat cells from 10 rats are washed three times by flotation with 50 ml each of homogenization buffer ([…], pH 7.4, 0.25 M sucrose, 1 mM ethylenediamine-N,N,N′,N′-tetraacetic acid (EDTA), 1 mM dithiothreitol (DTT), 10 μg/ml of leupeptin, 10 μg/ml of antipain, 20 μg/ml of pepstatin) and finally taken up in 10 ml of homogenization buffer. The fat cells are homogenized in a Teflon-in-glass homogenizer (Braun-Melsungen) by 10 strokes at 1500 rpm and 15° C. The homogenizate is centrifuged (Sorvall SM24 tubes, 5000 rpm, 10 min, 4° C.). The […] between the overlying fatty layer and the pellet is removed and the centrifugation is repeated. The […] resulting from this is centrifuged again (Sorvall SM24 tubes, 20,000 rpm, 45 min, 4° C.). […] After incubation for 60 min at 4° C. (shake at intervals of 15 min), the batch is centrifuged (Sorvall SM24 tubes, 3000 rpm, 10 min, 4° C.). The supernatant is brought to pH 5.2 by addition of glacial acetic acid and incubated at 4° C. for 30 min. […] The suspension is dialyzed overnight at 4° C. against 25 mM TRIS/HCl, pH 7.4, 50% glycerol, 1 mM DTT, and 10 μg/ml of leupeptin, pepstatin, and antipain and then applied to a hydroxylapatite column (0.1 g per 1 ml of suspension, equilibrated with 10 mM potassium phosphate, pH 7.0, 30% glycerol, 1 mM DTT). The column is washed with four volumes of equilibration buffer at a flow rate of 20 to 30 ml/h. The HSL is eluted with a volume of equilibration buffer which contains 0.5 M potassium phosphate, then dialyzed (see above) and concentrated 5 to 10 times by ultrafiltration (Amicon Diaflo PM 10 filter) at 4° C. The partially purified HSL can be stored at −70° C. for 4 to 6 weeks.
6 mg of phosphatidylcholine and 6 mg of phosphatidylinositol are dissolved in 1 ml of chloroform each. 10 mg of NAG are dissolved in 1 ml of chloroform. […] The chloroform (225 μl total volume) is completely removed by overblowing with a stream of N2. The dried substrate can be stored at 4° C. for up to three days. For the preparation of the phospholipid vesicles/micelles having intercalated NAG (on the test day), the dried substrate is taken up in 20 ml of assay buffer (25 mM TRIS/HCl, pH 7.4; 150 mM NaCl) and two ultrasonic treatments with an ultrasonic probe (Branson Sonifier type 11, standard microtip): 1st treatment setting 2, 2×1 min, in between in each case 1 min on ice; 2nd treatment setting 4, 2×1 min, in between in each case 1 min on ice. […] Before use as a substrate (within the next 2 h), the solution is additionally incubated on ice for 15 min.
The assay is carried out at 30° C. for 60 min in 1.5 ml Eppendorf vessels or 96-hole plates.

O=C(CCCCCCCCCCCNc1ccc([N+](=O)[O-])c2nonc12)OCC(O)CO (stereo not shown) [Compound (3)]
Increase in the absorption at 481 nm (96-hole microtiter plate, 200 μl, 1 min, Tests 1-8, listed as NAG): 50 arb. units and 48 arb. units and 61 arb. units and 49 arb. units and 56 arb. units and 52 arb. units and 57 arb. units | Increase in the absorption at 481 nm (96-hole microtiter plate, 200 μl, 2 min, Tests 1-8, listed as NAG): 97 arb. units and 89 arb. units and 107 arb. units and 95 arb. units and 101 arb. units and 116 arb. units and 93 arb. units | Increase in the absorption at 481 nm (96-hole microtiter plate, 200 μl, 5 min, Tests 1-8, listed as NAG): 238 arb. units and 269 arb. units and 278 arb. units and 243 arb. units and 277 arb. units and 248 arb. units and 235 arb. units and 241 arb. units | Increase in the absorption at 481 nm (96-hole microtiter plate, 200 μl, 10 min, Tests 1-8, listed as NAG): 487 arb. units and 534 arb. units and 462 arb. units and 458 arb. units and 552 arb. units and 508 arb. units and 488 arb. units and 460 arb. units | Increase in the absorption at 481 nm (96-hole microtiter plate, 200 μl, 15 min, Tests 1-8, listed as NAG): 713 arb. units and 768 arb. units and 709 arb. units and 712 arb. units and 789 arb. units and 780 arb. units and 735 arb. units and 718 arb. units | Increase in the absorption at 481 nm (96-hole microtiter plate, 200 μl, 20 min, Tests 1-8, listed as NAG): 978 arb. units and 1013 arb. units and 967 arb. units and 979 arb. units and 1097 arb. units and 1121 arb. units and 1045 arb. units and 966 arb. units | Increase in the absorption at 481 nm (96-hole microtiter plate, 200 μl, 30 min, Tests 1-8, listed as NAG): 1413 arb. units and 1579 arb. units and 1625 arb. units and 1690 arb. units and 1523 arb. units and 1688 arb. units and 1452 arb. units and 1410 arb. units | Increase in the absorption at 481 nm (96-hole microtiter plate, 200 μl, 45 min, Tests 1-8, listed as NAG): 2045 arb. units and 2134 arb. units and 2239 arb. units and 2106 arb. units and 2238 arb. units and 1967 arb. units and 2145 arb. units | Increase in the absorption at 481 nm (96-hole microtiter plate, 200 μl, 60 min, Tests 1-8, listed as NAG): 2367 arb. units and 2541 arb. units and 2658 arb. units and 2755 arb. units and 2534 arb. units and 2608 arb. units and 2536 arb. units and 2690 arb. units | Increase in the absorption at 481 nm (96-hole microtiter plate, 200 μl, 75 min, Tests 1-8, listed as NAG): 2611 arb. units and 2894 arb. units and 2973 arb. units and 3023 arb. units and 2871 arb. units and 2879 arb. units and 2982 arb. units and 2895 arb. units | Increase in the absorption at 481 nm (96-hole microtiter plate, 200 μl, 90 min, Tests 1-8, listed as NAG): 2985 arb. units and 3244 arb. units and 3310 arb. units and 3355 arb. units and 3260 arb. units and 3122 arb. units and 3240 arb. units and 3125 arb. units | Increase in the absorption at 481 nm (96-hole microtiter plate, 200 μl, 120 min, Tests 1-8, listed as NAG): 3127 arb. units and 3469 arb. units and 3577 arb. units and 3601 arb. units and 3489 arb. units and 3378 arb. units and 3507 arb. units and 3320 arb. units | Increase in the absorption at 481 nm (HSL, enzyme 10 arb. units, 60 min, NAG 0.05 mg/ml): 143 ± 18 arb. units | Increase in the absorption at 481 nm (HSL, enzyme 20 arb. units, 60 min, NAG 0.05 mg/ml): 321 ± 28 arb. units | Increase in the absorption at 481 nm (HSL, enzyme 50 arb. units, 60 min, NAG 0.05 mg/ml): 744 ± 58 arb. units | Increase in the absorption at 481 nm (HSL, enzyme 75 arb. units, 60 min, NAG 0.05 mg/ml): 1023 ± 95 arb. units | Increase in the absorption at 481 nm (HSL, enzyme 100 arb. units, 60 min, NAG 0.05 mg/ml): 1287 ± 165 arb. units | Increase in the absorption at 481 nm (HSL, enzyme 150 arb. units, 60 min, NAG 0.05 mg/ml): 2106 ± 183 arb. units | Increase in the absorption at 481 nm (HSL, enzyme 200 arb. units, 60 min, NAG 0.05 mg/ml): 2697 ± 231 arb. units | Increase in the absorption at 481 nm (HSL, enzyme 250 arb. units, 60 min, NAG 0.05 mg/ml): 3321 ± 349 arb. units | Increase in the absorption at 481 nm (HSL, enzyme 300 arb. units, 60 min, NAG 0.05 mg/ml): 3855 ± 288 arb. units | Increase in the absorption at 481 nm (HSL, enzyme 400 arb. units, 60 min, NAG 0.05 mg/ml): 4427 ± 402 arb. units | Increase in the absorption at 481 nm (PI/PC 0.025 mg/ml, PI:PC 1:1, HSL 20 μg, 60 min, NAG 0.05 mg/ml): 1879 ± 205 arb. units | Increase in the absorption at 481 nm (PI/PC 0.025 mg/ml, PI:PC 1:3, HSL 20 μg, 60 min, NAG 0.05 mg/ml): 1158 ± 121 arb. units | Increase in the absorption at 481 nm (PI/PC 0.025 mg/ml, PI:PC 3:1, HSL 20 μg, 60 min, NAG 0.05 mg/ml): 2980 ± 254 arb. units | Increase in the absorption at 481 nm (PI/PC 0.0375 mg/ml, PI:PC 1:1, HSL 20 μg, 60 min, NAG 0.05 mg/ml): 1649 ± 170 arb. units | Increase in the absorption at 481 nm (PI/PC 0.0375 mg/ml, PI:PC 1:3, HSL 20 μg, 60 min, NAG 0.05 mg/ml): 1230 ± 105 arb. units | Increase in the absorption at 481 nm (PI/PC 0.0375 mg/ml, PI:PC 3:1, HSL 20 μg, 60 min, NAG 0.05 mg/ml): 3144 ± 277 arb. units
